# Reference: PubChem BioAssay AID2417 (National Center for Advancing Translational Sciences (NCATS), 2010)
# About 4,300 (3.1%) of roughly 140,000 compounds were called active. The inconclusive results got no clear call from the source; some entries with a clear call stand among them for comparison.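 How the source made its calls: active means readout at or below -70, meaning at least 70% loss of cells showing the perinucleolar compartment, a nuclear body marking cancer cells; inconclusive means readout between -30 and a set limit; inactive means the rest.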
# Assay: High Content Assay for Compounds that inhibit the Assembly of the Perinucleolar Compartment;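 further: plate controls were DMSO wells for no effect and camptothecin positive control wells for full effect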
# Settings: PC3M PTB-GFP, PNC prevalence imaging, 16 h; at 10 µM; stronger effect = lower value
# Outline: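 Compounds are pinned in duplicate onto adhered PC3M cells stably expressing GFP-tagged PTB and incubated 16 h at 37 C. Cells are then fixed, nuclei stained with Hoechst, and PNC-positive cells counted.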
row,SMILES,"activity change (PNC), negative = inhibition"
1,O=C(Cc1sc(Nc2ccccc2)nc1-c1ccccc1)NCc1ccccc1,inconclusive: -39.1%
2,COc1ccc(-c2cc(C(F)(F)F)nc(SCC(=O)N(C)Cc3cn(C)nc3C)n2)cc1OC,inconclusive: -53.4%
3,COc1cccc(CNC(=O)C2CCN(S(=O)(=O)c3cccs3)CC2)c1,inconclusive: -31.8%
4,O=C1c2cccc3cccc(c23)C(=O)N1CCN1CCN(C(=S)Nc2ccccc2)CC1,inconclusive: -42.3%
5,CCn1nccc1C(=O)Nc1cc(Cl)ccc1Cl,inconclusive: -70.5%
6,COc1ccc(CN=Cc2c(C(F)(F)F)[nH][nH]c2=O)cc1,inconclusive: -59.1%
7,Nc1c(C(=O)N2CCOCC2)sc(=S)n1-c1ccccc1,inactive: 40%
8,CCOC(=O)c1cc(-c2ccc(/C=C3/C(=O)NC(=O)C(C#N)=C3C)o2)ccc1Cl,inactive: -12.9%
9,COCCNC(=O)CN(c1ccc(OC)c(OC)c1)S(=O)(=O)c1ccc(C)cc1,active: -106%
10,Cc1nnc(SCC(=O)NCc2ccco2)n1-c1ccccc1,inactive: 35.7%
11,COc1cc(NC(=O)c2cccc(C)c2)c(Cl)cc1[N+](=O)[O-],inactive: 9.5%
12,CCCn1c2c(c(O)c(C(=O)Nc3nc(C)cs3)c1=O)CCCC2,inconclusive: -58.2%
13,Cc1nn(C(=O)c2c([N+](=O)[O-])cnn2C)c(C)c1Cl,inactive: -0.869%
14,CC(C)(C)NC(=O)c1ccc(Sc2ccccc2)c([N+](=O)[O-])c1,inconclusive: -77.6%
15,CCOc1ccccc1N1CCN(C(=O)C2c3ccccc3Oc3ccccc32)CC1,inconclusive: -48.5%
16,NNC(=O)c1cccc(O)c1,inactive: 7.4%
17,CCN(CC)S(=O)(=O)c1ccc(S(=O)(=O)N(Cc2ccccn2)Cc2ccco2)cc1,inconclusive: -32.7%
18,CC1N/C(=C\C(=O)c2ccccc2)N(O)C1(C)C (stereo not given),inactive: 23.4%
19,COC(=O)c1ccc(CSc2ncnc3c2nnn3-c2ccc(F)cc2)o1,inactive: -25.7%
20,O=S(=O)(c1ccc(F)cc1)n1ccc(-c2cccc(OCc3ccc(Cl)cc3Cl)c2)n1,inconclusive: -42.3%
21,O=C(CSc1nnc(SCc2cccc3ccccc23)s1)N=Nc1c(O)[nH]c2ccccc12,inconclusive: -33.9%
22,CC1(C)Oc2ccc(NC(=O)c3ccco3)cc2O1,inactive: -1.21%
23,Cc1ccccc1N1CCN(C2=NC(=O)/C(=C\c3cccs3)S2)CC1,inactive: 21%
24,CCOC(=O)c1cc(NC(=O)c2ccc(Cl)cc2)c(=O)n2c1oc1ccc(Cl)cc12,inconclusive: -42.9%
25,CCc1ccccc1N(CC(=O)Nc1cccc(N(C)S(C)(=O)=O)c1)S(C)(=O)=O,inconclusive: -73.7%
26,Clc1ccc(-c2nnc(COc3ncnc4sccc34)o2)cc1,inactive: -26.3%
27,O=C(CCn1c(=O)c2sccc2n(CC(=O)OCc2ccccc2)c1=O)NCc1ccco1,inconclusive: -30.5%
28,O=C(C1CCCN(Cc2ccccc2Br)C1)N1CCCCC1 (stereo not given),inactive: -17.4%

# Rewritten with bars between the fields: 4 of the compounds above
row | SMILES | activity change (PNC), negative = inhibition
21 | O=C(CSc1nnc(SCc2cccc3ccccc23)s1)N=Nc1c(O)[nH]c2ccccc12 | inconclusive: -33.9%
22 | CC1(C)Oc2ccc(NC(=O)c3ccco3)cc2O1 | inactive: -1.21%
23 | Cc1ccccc1N1CCN(C2=NC(=O)/C(=C\c3cccs3)S2)CC1 | inactive: 21%
24 | CCOC(=O)c1cc(NC(=O)c2ccc(Cl)cc2)c(=O)n2c1oc1ccc(Cl)cc12 | inconclusive: -42.9%

# Remaining list, next part.

row,SMILES,"activity change (PNC), negative = inhibition"
1,O=C(CNc1cccc2ccccc12)N/N=C/c1ccc(C(=O)O)cc1,inactive: -12.4%
2,CN1C(=C2C(=O)OC(C)(C)OC2=O)Sc2ccccc21,inactive: 31.9%
3,Cc1ccc(NC(=O)CN2c3cccc4cccc(c34)S2(=O)=O)cc1S(=O)(=O)N1CCOCC1,inactive: -9.67%
4,Cc1nn(CCc2nc(-c3ccco3)cs2)c2[nH]c(=O)cc(C(F)(F)F)c12,inconclusive: -48.4%
5,COc1ccc(/C=N/OCC(=O)N(Cc2ccccc2)c2ccccc2C(=O)O)cc1,inconclusive: -35.6%
6,O=c1[nH]c2cc3c(cc2cc1C(c1nnnn1Cc1ccccc1)N1CCCc2ccccc21)OCO3 (stereo not given),active: -119%
7,CCOC(=O)C1=C(CP(=O)(c2ccccc2)c2ccccc2)NC(=O)NC1c1ccc(Cl)cc1 (stereo not given),inconclusive: -74.1%
8,CCc1c(C)nc2ncnn2c1NCCc1ccc(OC)c(OC)c1,inactive: 4.68%
9,Cc1ccc(Cl)cc1NC1=C/C(=N\S(=O)(=O)c2cccs2)c2ccccc2C1=O,inactive: -3.41%
10,O=C(On1c(-c2ccccc2)nc2ccccc2c1=O)c1ccco1,inactive: 9.53%
11,O=C(CCC(=O)NC1CCN(Cc2ccccc2)CC1)NCc1ccco1,inconclusive: -32.8%
12,CCN(CC(=O)NC1CCS(=O)(=O)C1)S(=O)(=O)c1ccccc1 (stereo not given),inactive: -23.3%
13,Cc1c(C)c2c(C)nn(-c3ccccc3)c2[nH]c1=O,inconclusive: -34%
14,CCc1c(C)nc2c(Br)cccc2c1SCCC#N,inconclusive: -50.5%
15,O=C(Nc1ccc(N2C(=O)c3cccc4cccc(c34)C2=O)cc1)c1ccc(N2CCCCC2)c([N+](=O)[O-])c1,inactive: 12%
16,Cc1cc(O)cc(=O)n1Cc1ccco1,inconclusive: -31.4%
17,c1ccc(-c2cn3nc(-c4ccccc4)cnc3n2)cc1,inconclusive: -54.5%
18,Cc1ccc(Oc2nc(C(F)(F)F)nc3ccccc23)cc1,inconclusive: -73.5%
19,COc1ccc(-c2cc(C(F)F)n3ncc(C(=O)NCC4CCCO4)c3n2)cc1 (stereo not given),inconclusive: -44.9%
20,Cc1ccc(NS(=O)(=O)c2cc(C(=O)NCCSC3CCCCC3)ccc2C)cc1,inconclusive: -65.6%
21,Cc1ccccc1N(CC(=O)NC1CCCC1)C(=O)c1oc(C(C)(C)C)cc1C,inconclusive: -62.9%
22,CCn1c2ccccc2c2cc(NC(=O)COC(=O)c3ccccc3F)ccc21,inconclusive: -35.9%
23,CC(C)NC(=O)c1ccccc1NC(=O)CS(=O)(=O)Cc1ccccc1,inconclusive: -35.8%
24,O=c1c2ccccc2nc(SCc2cn3ccsc3n2)n1-c1ccccc1F,inconclusive: -78%
25,O=C(CSc1nnc2scc(-c3ccccc3)n12)Nc1ccc2c(c1)OCCO2,inconclusive: -57.1%
26,O=C(/C=C/c1ccc(F)cc1)Nc1cccc(S(=O)(=O)Nc2cccc(C(F)(F)F)c2)c1,inconclusive: -50.9%
27,Nc1nc(SCC(=O)Nc2ccccc2Sc2ccccc2)n[nH]1,active: -111%
